Literature values, collected in patent US8183383B2, “Protein tyrosine phosphatase 1B inhibitor, preparation methods and uses thereof” (Shanghai Institute of Materia Medica, Chinese Academy of …, priority 2007, dated 2012).
pIC50, pKi: −log10 of the molar value. Structures were worked out from names or drawings and are uncertain.

Amino acid sequences for entries named in this document (tags omitted).
UniProt P18031, whole entry: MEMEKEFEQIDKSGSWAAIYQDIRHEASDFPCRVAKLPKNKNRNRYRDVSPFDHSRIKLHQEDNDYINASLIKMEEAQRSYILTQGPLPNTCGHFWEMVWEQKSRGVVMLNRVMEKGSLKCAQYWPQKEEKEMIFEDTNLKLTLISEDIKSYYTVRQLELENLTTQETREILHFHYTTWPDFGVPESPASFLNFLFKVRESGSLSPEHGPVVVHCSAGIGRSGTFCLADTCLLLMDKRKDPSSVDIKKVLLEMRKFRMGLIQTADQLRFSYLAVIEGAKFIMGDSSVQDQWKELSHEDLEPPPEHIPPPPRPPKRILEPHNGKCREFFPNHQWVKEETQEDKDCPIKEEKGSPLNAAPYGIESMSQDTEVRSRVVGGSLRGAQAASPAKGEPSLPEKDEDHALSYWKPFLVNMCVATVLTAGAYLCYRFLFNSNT

Biological target: PTP1B (Homo sapiens, UniProt P18031)
Conditions: background, selective peptide PTP1B inhibitor; cited from earlier work

Q: With `N[C@@H](CCC(=O)O)C(=O)N[C@@H](Cc1ccc(C(F)(F)P(=O)(O)O)cc1)C(=O)N[C@@H](Cc1ccc(C(F)(F)P(=O)(O)O)cc1)C(=O)O` as the molecule, how does the pIC50 read?
A: 7.40

Q: With `CSCC[C@H](NC(=O)[C@H](Cc1ccc(C(F)(F)P(=O)(O)O)cc1)NC(=O)[C@H](CCC(=O)O)NC(=O)[C@H](CC(=O)O)NC(=O)[C@H](CCC(=O)O)NC(=O)[C@@H](N)CCC(=O)O)C(=O)O` as the molecule, how does the pKi read?
A: 8.14
